Laboratory results from the supplement of paper PMC8728848.
The list shows a part of the results.

What was measured:
Assay in all cases: glycan array binding signal (z-score within array); higher = stronger binding
Conditions in all cases: glycan notation: IUPAC condensed, linker removed
[1] = target: Neu5Ac(a2-3)Gal(b1-3)GlcNAc6S
In short: (§1)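 Columns mapping to the same glycan were averaged after glycan names were converted to IUPAC-condensed notation. The data come from 3228 arrays in the Consortium for Functional Glycomics database, limited to those with an available protein sequence. Binding is reported as a within-array Z-score averaged across arrays of one protein sequence and across linkers.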

[2] = target: Neu5Ac(a2-3)Gal(b1-3)[Fuc(a1-4)]GlcNAc
In short: as §1

[3] = target: Neu5Ac(a2-3)Gal(b1-3)[Fuc(a1-4)]GlcNAc(b1-3)Gal(b1-3)[Fuc(a1-4)]GlcNAc
In short: as §1

[4] = target: Neu5Ac(a2-3)Gal(b1-3)[Fuc(a1-4)]GlcNAc(b1-3)Gal(b1-4)[Fuc(a1-3)]GlcNAc
In short: as §1

[5] = target: Neu5Ac(a2-3)Gal(b1-3)[GlcNAc(b1-6)]GalNAc
In short: as §1

[6] = target: Neu5Ac(a2-3)Gal(b1-3)[Neu5Ac(a2-6)]GalNAc
In short: as §1

[7] = target: Neu5Ac(a2-3)Gal(b1-3)[Neu5Ac(a2-6)]GlcNAc(b1-3)[Fuc(a1-3)[Gal(b1-4)]GlcNAc(b1-6)]Gal(b1-4)Glc
In short: as §1

[8] = target: Neu5Ac(a2-3)Gal(b1-3)]Neu5Ac(a2-3)Gal(b1-4)]GlcNAc
In short: as §1

Neu5Ac(a2-3)Gal(b1-4)Glc = target: Neu5Ac(a2-3)Gal(b1-4)Glc
In short: as §1

[9] = target: Neu5Ac(a2-3)Gal(b1-4)GlcNAc
In short: as §1

[10] = target: Neu5Ac(a2-3)Gal(b1-4)GlcNAc(b1-2)Man
In short: as §1

[11] = target: Neu5Ac(a2-3)Gal(b1-4)GlcNAc(b1-2)Man(a1-3)[GlcNAc(b1-4)][Neu5Ac(a2-3)Gal(b1-4)GlcNAc(b1-2)Man(a1-6)]Man(b1-4)GlcNAc(b1-4)GlcNAc
In short: as §1

[12] = target: Neu5Ac(a2-3)Gal(b1-4)GlcNAc(b1-2)Man(a1-3)[Neu5Ac(a2-3)Gal(b1-4)GlcNAc(b1-2)Man(a1-6)]Man(b1-4)GlcNAc(b1-4)GlcNAc
In short: as §1

[13] = target: Neu5Ac(a2-3)Gal(b1-4)GlcNAc(b1-2)Man(a1-3)[Neu5Ac(a2-3)Gal(b1-4)GlcNAc(b1-2)Man(a1-6)]Man(b1-4)GlcNAc(b1-4)[Fuc(a1-6)]GlcNAc
In short: as §1

[14] = target: Neu5Ac(a2-3)Gal(b1-4)GlcNAc(b1-2)Man(a1-3)[Neu5Ac(a2-6)Gal(b1-4)GlcNAc(b1-2)Man(a1-6)]Man(b1-4)GlcNAc(b1-4)GlcNAc
In short: as §1

[15] = target: Neu5Ac(a2-3)Gal(b1-4)GlcNAc(b1-2)[Neu5Ac(a2-3)Gal(b1-4)GlcNAc(b1-4)]Man(a1-3)[GlcNAc(b1-4)][Neu5Ac(a2-3)Gal(b1-4)GlcNAc(b1-2)[Neu5Ac(a2-3)Gal(b1-4)GlcNAc(b1-6)]Man(a1-6)]Man(b1-4)GlcNAc(b1-4)GlcNAc
In short: as §1

[16] = target: Neu5Ac(a2-3)Gal(b1-4)GlcNAc(b1-2)[Neu5Ac(a2-3)Gal(b1-4)GlcNAc(b1-4)]Man(a1-3)[GlcNAc(b1-4)][Neu5Ac(a2-3)Gal(b1-4)GlcNAc(b1-4)Man(a1-6)]Man(b1-4)GlcNAc(b1-4)GlcNAc
In short: as §1

[17] = target: Neu5Ac(a2-3)Gal(b1-4)GlcNAc(b1-2)[Neu5Ac(a2-3)Gal(b1-4)GlcNAc(b1-6)]Man(a1-6)[Neu5Ac(a2-3)Gal(b1-4)GlcNAc(b1-2)Man(a1-3)][GlcNAc(b1-4)]Man(b1-4)GlcNAc(b1-4)GlcNAc
In short: as §1

[18] = target: Neu5Ac(a2-3)Gal(b1-4)GlcNAc(b1-3)Gal
In short: as §1

[19] = target: Neu5Ac(a2-3)Gal(b1-4)GlcNAc(b1-3)Gal(b1-3)GlcNAc
In short: as §1

[20] = target: Neu5Ac(a2-3)Gal(b1-4)GlcNAc(b1-3)Gal(b1-4)GlcNAc
In short: as §1

[21] = target: Neu5Ac(a2-3)Gal(b1-4)GlcNAc(b1-3)Gal(b1-4)GlcNAc(b1-2)Man(a1-3)[Neu5Ac(a2-3)Gal(b1-4)GlcNAc(b1-3)Gal(b1-4)GlcNAc(b1-2)Man(a1-6)]Man(b1-4)GlcNAc(b1-4)GlcNAc
In short: as §1

[22] = target: Neu5Ac(a2-3)Gal(b1-4)GlcNAc(b1-3)Gal(b1-4)GlcNAc(b1-3)Gal(b1-4)GlcNAc
In short: as §1

[23] = target: Neu5Ac(a2-3)Gal(b1-4)GlcNAc(b1-3)Gal(b1-4)GlcNAc(b1-3)Gal(b1-4)GlcNAc(b1-2)Man(a1-3)[Neu5Ac(a2-3)Gal(b1-4)GlcNAc(b1-3)Gal(b1-4)GlcNAc(b1-3)Gal(b1-4)GlcNAc(b1-2)Man(a1-6)]GalNAc
In short: as §1

[24] = target: Neu5Ac(a2-3)Gal(b1-4)GlcNAc(b1-3)Gal(b1-4)GlcNAc(b1-3)GalNAc
In short: as §1

[25] = target: Neu5Ac(a2-3)Gal(b1-4)GlcNAc(b1-3)Gal(b1-4)GlcNAc(b1-3)[Neu5Ac(a2-3)Gal(b1-4)GlcNAc(b1-3)Gal(b1-4)GlcNAc(b1-6)]GalNAc
In short: as §1

[26] = target: Neu5Ac(a2-3)Gal(b1-4)GlcNAc(b1-3)Gal(b1-4)GlcNAc(b1-6)[Gal(b1-3)]GalNAc
In short: as §1

[27] = target: Neu5Ac(a2-3)Gal(b1-4)GlcNAc(b1-3)Gal(b1-4)[Fuc(a1-3)]GlcNAc
In short: as §1

[28] = target: Neu5Ac(a2-3)Gal(b1-4)GlcNAc(b1-3)GalNAc
In short: as §1

[29] = target: Neu5Ac(a2-3)Gal(b1-4)GlcNAc(b1-3)[Neu5Ac(a2-3)Gal(b1-4)GlcNAc(b1-6)]GalNAc
In short: as §1

[30] = target: Neu5Ac(a2-3)Gal(b1-4)GlcNAc(b1-6)GalNAc
In short: as §1

[31] = target: Neu5Ac(a2-3)Gal(b1-4)GlcNAc(b1-6)[Gal(b1-3)]GalNAc
In short: as §1

[32] = target: Neu5Ac(a2-3)Gal(b1-4)GlcNAc(b1-6)[Neu5Ac(a2-3)Gal(b1-3)]GalNAc
In short: as §1

[33] = target: Neu5Ac(a2-3)Gal(b1-4)GlcNAc6S
In short: as §1

[34] = target: Neu5Ac(a2-3)Gal(b1-4)[Fuc(a1-3)]GlcNAc
In short: as §1

[35] = target: Neu5Ac(a2-3)Gal(b1-4)[Fuc(a1-3)]GlcNAc(b1-2)Man
In short: as §1

[36] = target: Neu5Ac(a2-3)Gal(b1-4)[Fuc(a1-3)]GlcNAc(b1-3)Gal
In short: as §1

[37] = target: Neu5Ac(a2-3)Gal(b1-4)[Fuc(a1-3)]GlcNAc(b1-3)Gal(b1-4)GlcNAc
In short: as §1

[38] = target: Neu5Ac(a2-3)Gal(b1-4)[Fuc(a1-3)]GlcNAc(b1-3)Gal(b1-4)[Fuc(a1-3)]GlcNAc(b1-3)Gal(b1-4)[Fuc(a1-3)]GlcNAc
In short: as §1

[39] = target: Neu5Ac(a2-3)Gal(b1-4)[Fuc(a1-3)]GlcNAc(b1-3)GalNAc
In short: as §1

[40] = target: Neu5Ac(a2-3)Gal(b1-4)[Fuc(a1-3)]GlcNAc(b1-6)[Gal(b1-3)]GalNAc
In short: as §1

[41] = target: Neu5Ac(a2-3)Gal(b1-4)[Fuc(a1-3)]GlcNAc(b1-6)[Neu5Ac(a2-3)Gal(b1-3)]GalNAc
In short: as §1

[42] = target: Neu5Ac(a2-3)Gal(b1-4)[Fuc(a1-3)]GlcNAc6S
In short: as §1

[43] = target: Neu5Ac(a2-3)Gal6S(b1-4)GlcNAc
In short: as §1

[44] = target: Neu5Ac(a2-3)Gal6S(b1-4)[Fuc(a1-3)]GlcNAc
In short: as §1

B1: Pwp7 (Candida glabrata) (protein)
chain: MGSSHHHHHHSSGLVPRGSHMASKNPVDFPNLCQYPNLDGAVAGFDTEIYNADPSILINFSLWPILQFPKEWHKTIGRAITTQTNFKLPASDTTLFGVSIPTQNILIEFRGYFIPPKSGTYTFALYLTDDGSAMFLGNDAAFPCGNITSWSNPTNDQVSVSDYDPKKKTLTVYMVAGVAYPLRIAYYNREKGGSLTASFVDPDGLTHSDWNGYIWTLPSCDNCKYS
With B1 as the binder, how does the “glycan array binding signal (z-score)” value [1] read?
Its value is -0.613.

What about the “glycan array binding signal (z-score)” value [2] of the same binder?
The value was -0.905.

What about the “glycan array binding signal (z-score)” value [3] of the same binder?
The value was 0.517.

What about the “glycan array binding signal (z-score)” value [4] of the same binder?
The value was 0.414.

What about the “glycan array binding signal (z-score)” value [5] of the same binder?
The value was 1.97.

What about the “glycan array binding signal (z-score)” value [6] of the same binder?
The value was 0.488.

What about the “glycan array binding signal (z-score)” value [7] of the same binder?
Its value is 0.952.

And the “glycan array binding signal (z-score)” value [8]?
Its value is 0.334.

What about the “glycan array binding signal (z-score)” value (Neu5Ac(a2-3)Gal(b1-4)Glc) of the same binder?
The value was -0.417.

And the “glycan array binding signal (z-score)” value [9]?
The value was -1.2.

What about the “glycan array binding signal (z-score)” value [10] of the same binder?
Its value is 1.25.

And the “glycan array binding signal (z-score)” value [11]?
Its value is 1.48.

What about the “glycan array binding signal (z-score)” value [12] of the same binder?
Its value is 0.472.

What about the “glycan array binding signal (z-score)” value [13] of the same binder?
Its value is 0.821.

And the “glycan array binding signal (z-score)” value [14]?
The value was 0.678.

And the “glycan array binding signal (z-score)” value [15]?
The value was 0.267.

What about the “glycan array binding signal (z-score)” value [16] of the same binder?
The value was 0.163.

And the “glycan array binding signal (z-score)” value [17]?
Its value is 10.8.

And the “glycan array binding signal (z-score)” value [18]?
Its value is -0.482.

And the “glycan array binding signal (z-score)” value [19]?
The value was 0.417.

And the “glycan array binding signal (z-score)” value [20]?
The value was -0.686.

And the “glycan array binding signal (z-score)” value [21]?
Its value is 1.08.

What about the “glycan array binding signal (z-score)” value [22] of the same binder?
The value was 0.639.

What about the “glycan array binding signal (z-score)” value [23] of the same binder?
The value was 1.28.

And the “glycan array binding signal (z-score)” value [24]?
The value was 1.76.

What about the “glycan array binding signal (z-score)” value [25] of the same binder?
Its value is 2.02.

And the “glycan array binding signal (z-score)” value [26]?
Its value is 1.16.

What about the “glycan array binding signal (z-score)” value [27] of the same binder?
The value was 0.981.

What about the “glycan array binding signal (z-score)” value [28] of the same binder?
The value was -0.11.

And the “glycan array binding signal (z-score)” value [29]?
Its value is 2.25.

And the “glycan array binding signal (z-score)” value [30]?
The value was 1.05.

What about the “glycan array binding signal (z-score)” value [31] of the same binder?
The value was -0.55.

And the “glycan array binding signal (z-score)” value [32]?
The value was 0.511.

What about the “glycan array binding signal (z-score)” value [33] of the same binder?
The value was -0.764.

What about the “glycan array binding signal (z-score)” value [34] of the same binder?
Its value is -0.138.

And the “glycan array binding signal (z-score)” value [35]?
The value was 0.134.

What about the “glycan array binding signal (z-score)” value [36] of the same binder?
The value was -0.216.

And the “glycan array binding signal (z-score)” value [37]?
The value was -0.893.

What about the “glycan array binding signal (z-score)” value [38] of the same binder?
Its value is 0.044.

What about the “glycan array binding signal (z-score)” value [39] of the same binder?
Its value is -0.282.

What about the “glycan array binding signal (z-score)” value [40] of the same binder?
Its value is -1.05.

And the “glycan array binding signal (z-score)” value [41]?
Its value is 1.38.

And the “glycan array binding signal (z-score)” value [42]?
The value was -0.479.

And the “glycan array binding signal (z-score)” value [43]?
The value was -0.862.

And the “glycan array binding signal (z-score)” value [44]?
The value was -0.423.
